Laboratory results as given in article PMC2703648.
No constants are given. Whether binding was seen depends on the method and setting. Binding seen in cells or lysates may run through a third protein. Sequences can lack the tags named with a protein.

Target: T1, dynamin2/GTPase-GFP fusion protein (human) (UniProt P50570)
T1 sequence: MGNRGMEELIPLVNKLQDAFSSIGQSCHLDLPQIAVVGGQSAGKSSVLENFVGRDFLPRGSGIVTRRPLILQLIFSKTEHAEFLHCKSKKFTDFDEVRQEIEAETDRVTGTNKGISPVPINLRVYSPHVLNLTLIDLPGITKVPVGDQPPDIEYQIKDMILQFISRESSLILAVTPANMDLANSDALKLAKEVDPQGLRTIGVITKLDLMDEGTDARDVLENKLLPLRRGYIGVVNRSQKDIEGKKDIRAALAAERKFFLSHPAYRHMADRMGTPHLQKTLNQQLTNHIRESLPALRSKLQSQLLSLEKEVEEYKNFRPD
Test: co-IP; extracts of pEAK Rapid cells co-expressing dynamin2/GTPase-GFP with Kalirin7 or Kalirin12, immunoprecipitated with polyclonal GFP antibody or control immunoglobulin, blotted with Kalirin-spectrin antibody

binding: no binding
Substance: Kalirin7 (rat)
